No constants are given. Whether binding was seen depends on the method and setting. Binding seen in cells or lysates may run through a third protein. Some entries that bind do so weakly or less than the wild type.
Biological target: Focal adhesion kinase 1 (human (endogenous in HCT-116)) (UniProt Q05397)
Assay: co-IP; anti-FAK IP from lysate of EGF-stimulated HCT-116 cells, Western blot for zyxin, nesprin-1 and desmoplakin; IgG control

The chains behind the UniProt entries cited, without tags or fusion partners.
UniProt Q05397: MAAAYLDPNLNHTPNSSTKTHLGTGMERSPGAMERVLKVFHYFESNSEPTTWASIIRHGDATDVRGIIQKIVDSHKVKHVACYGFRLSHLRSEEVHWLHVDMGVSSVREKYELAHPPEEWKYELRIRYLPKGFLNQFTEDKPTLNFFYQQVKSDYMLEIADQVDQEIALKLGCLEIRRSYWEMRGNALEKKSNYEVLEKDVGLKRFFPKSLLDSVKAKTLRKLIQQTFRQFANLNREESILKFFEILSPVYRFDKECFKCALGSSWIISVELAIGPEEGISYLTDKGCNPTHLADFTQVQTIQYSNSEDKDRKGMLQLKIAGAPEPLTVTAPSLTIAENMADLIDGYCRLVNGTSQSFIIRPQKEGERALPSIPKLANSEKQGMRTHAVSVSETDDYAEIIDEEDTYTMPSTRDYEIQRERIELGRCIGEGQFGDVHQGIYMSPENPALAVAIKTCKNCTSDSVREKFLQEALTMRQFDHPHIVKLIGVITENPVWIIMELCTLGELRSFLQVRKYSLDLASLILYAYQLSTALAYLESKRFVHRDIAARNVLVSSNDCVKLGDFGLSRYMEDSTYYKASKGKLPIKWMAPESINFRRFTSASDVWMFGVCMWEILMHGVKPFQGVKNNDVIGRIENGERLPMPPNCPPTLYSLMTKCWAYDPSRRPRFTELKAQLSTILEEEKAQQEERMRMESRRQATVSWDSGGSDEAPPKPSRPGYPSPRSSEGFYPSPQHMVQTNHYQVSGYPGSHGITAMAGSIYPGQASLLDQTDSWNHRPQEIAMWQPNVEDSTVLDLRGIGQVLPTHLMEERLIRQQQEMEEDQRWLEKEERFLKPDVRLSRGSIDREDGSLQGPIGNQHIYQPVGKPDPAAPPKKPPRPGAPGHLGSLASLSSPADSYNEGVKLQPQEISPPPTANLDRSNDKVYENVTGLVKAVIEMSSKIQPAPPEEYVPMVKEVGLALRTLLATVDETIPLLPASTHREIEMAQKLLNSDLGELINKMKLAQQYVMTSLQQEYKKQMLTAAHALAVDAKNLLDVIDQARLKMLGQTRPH

binding: binds
B1: Zyxin (protein, UniProt Q15942 1-572)
chain: MAAPRPSPAISVSVSAPAFYAPQKKFGPVVAPKPKVNPFRPGDSEPPPAPGAQRAQMGRVGEIPPPPPEDFPLPPPPLAGDGDDAEGALGGAFPPPPPPIEESFPPAPLEEEIFPSPPPPPEEEGGPEAPIPPPPQPREKVSSIDLEIDSLSSLLDDMTKNDPFKARVSSGYVPPPVATPFSSKSSTKPAAGGTAPLPPWKSPSSSQPLPQVPAPAQSQTQFHVQPQPQPKPQVQLHVQSQTQPVSLANTQPRGPPASSPAPAPKFSPVTPKFTPVASKFSPGAPGGSGSQPNQKLGHPEALSAGTGSPQPPSFTYAQQREKPRVQEKQHPVPPPAQNQNQVRSPGAPGPLTLKEVEELEQLTQQLMQDMEHPQRQNVAVNELCGRCHQPLARAQPAVRALGQLFHIACFTCHQCAQQLQGQQFYSLEGAPYCEGCYTDTLEKCNTCGEPITDRMLRATGKAYHPHCFTCVVCARPLEGTSFIVDQANRPHCVPDYHKQYAPRCSVCSEPIMPEPGRDETVRVVALDKNFHMKCYKCEDCGKPLSIEADDNGCFPLDGHVLCRKCHTARAQT

Reference: paper PMC6733923
